Reference: US20110008461A1 (priority 2008, published 2011)
At least one compound was matched to its structure with a doubt left.

Target: T1, Rat Liver Cytosolic Phosphoenolpyruvate Carboxykinase (Rattus norvegicus, UniProt P07379)
T1 sequence (P07379 1-622): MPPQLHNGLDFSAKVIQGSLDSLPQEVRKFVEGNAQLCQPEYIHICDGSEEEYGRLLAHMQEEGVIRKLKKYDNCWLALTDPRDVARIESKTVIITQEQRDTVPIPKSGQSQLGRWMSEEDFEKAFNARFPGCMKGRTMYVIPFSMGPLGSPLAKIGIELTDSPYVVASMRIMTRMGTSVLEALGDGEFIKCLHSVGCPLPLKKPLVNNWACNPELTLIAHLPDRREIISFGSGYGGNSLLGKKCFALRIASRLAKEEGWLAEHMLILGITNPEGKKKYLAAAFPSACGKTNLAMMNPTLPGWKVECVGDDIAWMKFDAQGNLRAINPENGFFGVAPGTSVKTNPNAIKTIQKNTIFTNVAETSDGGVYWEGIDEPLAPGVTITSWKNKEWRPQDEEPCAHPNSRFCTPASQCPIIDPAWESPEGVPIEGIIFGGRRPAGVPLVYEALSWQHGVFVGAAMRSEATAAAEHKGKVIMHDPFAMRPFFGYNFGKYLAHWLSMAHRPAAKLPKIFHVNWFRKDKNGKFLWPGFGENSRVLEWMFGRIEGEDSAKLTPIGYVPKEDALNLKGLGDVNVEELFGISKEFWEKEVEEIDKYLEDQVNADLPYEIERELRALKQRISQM
Experiment: Continuous spectrophotometric PEPCK inhibition assay coupled to malate dehydrogenase (preliminary screen, inhibition patterns, Dixon plots);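 further: PEPCK activity followed continuously via malate dehydrogenase coupling, where OAA reduction consumes NADH, seen as falling absorbance at 340 nm, run at 35 °C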

O=C(O)C1CCCC1C(=O)O (stereo not shown) [Compound 8, 1,2-Cyclopentanedicarboxylate]
Inhibition of PEPCK (in words): lack of inhibition
